These results are taken from patent publication US20020142359A1 (AstraZeneca / MedImmune, published 2002).

Sequences of proteins named here, by UniProt entry; tags and fusion partners are left off. Residues count along the entry.
UniProt P06731, residues 35-685: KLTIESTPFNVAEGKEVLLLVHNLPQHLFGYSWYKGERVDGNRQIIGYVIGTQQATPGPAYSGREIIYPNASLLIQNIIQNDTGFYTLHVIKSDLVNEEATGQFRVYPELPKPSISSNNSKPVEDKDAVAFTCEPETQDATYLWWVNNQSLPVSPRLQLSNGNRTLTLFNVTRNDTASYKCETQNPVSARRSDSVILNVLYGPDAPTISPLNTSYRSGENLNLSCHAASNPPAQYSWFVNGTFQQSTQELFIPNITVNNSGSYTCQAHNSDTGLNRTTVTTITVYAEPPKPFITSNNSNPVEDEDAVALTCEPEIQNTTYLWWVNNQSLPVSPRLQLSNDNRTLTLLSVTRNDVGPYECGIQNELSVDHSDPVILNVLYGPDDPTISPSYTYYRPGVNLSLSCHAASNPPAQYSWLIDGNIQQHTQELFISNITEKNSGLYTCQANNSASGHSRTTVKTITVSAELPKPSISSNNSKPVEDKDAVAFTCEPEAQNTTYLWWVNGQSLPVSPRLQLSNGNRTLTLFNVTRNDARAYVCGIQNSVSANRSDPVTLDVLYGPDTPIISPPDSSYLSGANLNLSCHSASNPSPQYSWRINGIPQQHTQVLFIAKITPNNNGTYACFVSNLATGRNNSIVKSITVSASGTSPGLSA

In this assay the target is CEA (Carcinoembryonic antigen), purified antigen (UniProt P06731). In words: CEA ELISA on NS0 culture supernatants (Example 44). For orientation: An ELISA detects its analyte on a solid surface through an enzyme-linked reagent.

These are yes or no findings as the source states them, for the method shown. Some results given as binding are weak or reduced against the parent protein; the word gives no strength.

B1: humanised 806.077 HuVH1/HuVK3 HuIgG3 F(ab')2 (antibody, V domains shown)
VH: EVQLQQSGPGLVRPSQTLSLTCTASGFNIKDNYMHWVRQPPGRGLEWIGWIDPENGDTEYAPKFRGRVTMLADTSKNQFSLRLSSVTAADTAVYYCHVLIYAGYLAMDYWGQGTLVTVSS
VL: QIVLTQSPSSLSASVGDRVTITCSASSSVTYMHWYQQKPGKAPKLLIYSTSNLASGVPSRFSGSGSGTDYTFTISSLQPEDIATYYCQQRSTYPLTFGQGTKLEIKR
Consider B1, for which the binding result is reported as “binds”.
